From PMC4227020
Results are given in words; binding and its absence hold for the method and conditions named. In cells and extracts the contact can be indirect. Sequences can lack the tags named with a protein.

Target: T1, Hemagglutinin (HA)-tagged Necdin (HA-Necdin) (UniProt P25233)
T1 sequence: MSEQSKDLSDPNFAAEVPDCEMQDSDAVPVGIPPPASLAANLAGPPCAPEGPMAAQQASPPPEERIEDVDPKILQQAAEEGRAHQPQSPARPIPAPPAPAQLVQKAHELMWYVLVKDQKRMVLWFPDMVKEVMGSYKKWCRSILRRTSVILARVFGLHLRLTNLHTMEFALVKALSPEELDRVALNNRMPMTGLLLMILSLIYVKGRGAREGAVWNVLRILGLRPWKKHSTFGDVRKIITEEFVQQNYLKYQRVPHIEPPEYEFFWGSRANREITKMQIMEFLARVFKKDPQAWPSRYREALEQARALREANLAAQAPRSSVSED
Experiment: co-IP; lysates of 293T cells co-expressing FLAG-Gα constructs and HA-Necdin; precipitated with anti-Necdin antibodies; blots with anti-FLAG and anti-Necdin

## FLAG-Gαi
  binding: no binding
